Consider six compounds from paper PMC4977651, “Molecular features of biguanides required for targeting of mitochondrial respiratory complex I and activation of AMP-kinase” (BMC Biology, 2016).

SMILES strings stand for the structures.

For one data set, the system named is MDBK cells. Kind of data set: Rotenone-sensitive oxygen consumption rate in intact MDBK cells. The class given is cell-based, Bos taurus. The following applies: for matrix biguanide concentration, mean: 40 mins exposure, external concentration IC50/10; for fold accumulation: matrix vs external (IC50/10) biguanide concentration. On the procedure:
143B (CRL-8303 from ATCC), HepG2 (85011430 from The Health Protection Agency), and MDBK (CCL-22 from ATCC) cells were grown on Dulbecco’s modified Eagle’s medium (DMEM) supplemented with 10 % fetal bovine serum (FBS, Thermo Fisher Scientific) at 37 °C in 5 % CO2. All cells were confirmed as negative for mycoplasma.
Oxygen consumption rates (OCRs) were measured using a Seahorse XF96 extracellular flux analyzer at 37 °C. For intact cell measurements, 1.4 × 10^4 143B, HepG2, or MDBK cells were plated (per well) in DMEM containing 10 % FBS into Seahorse Bioscience Inc. XF96 plates and incubated for ~12 h at 37 °C in 5 % CO2. Then, the medium was exchanged for assay buffer containing DMEM, 4.5 g L^−1 glucose, 1 mM pyruvate, 32 mM NaCl, 2 mM GlutaMAX, 15 mg L^−1 phenol red, and 20 mM HEPES (pH 7.4 at 37 °C) and the cells placed in a CO2-free incubator at 37 °C for 30 min. Basal oxygen consumption rates were established before the addition of biguanides at one-tenth of their IC50 (IC50/10), and followed for ~ 6 h before the addition of rotenone (2 μM).
(§1) Rotenone-sensitive OCRs were calculated by subtracting the rotenone-insensitive rates (determined at the end of the experiment). OCRs were normalized by dividing by the OCR recorded immediately prior to the addition of biguanide. For rate of uptake calculations, the OCRs at time points after biguanide addition were divided by the OCRs at the same time points in control experiments. Data from wells with failed port injections were excluded from the analyses. The respiratory control ratio (RCR) values (state III versus state IV respiration) were ~11 and ~6 for permeabilized MDBK and 143B cells, respectively.

In a further data set the test system is permeabilized MDBK cells. The data set is described as follows: ADP-stimulated rotenone-sensitive OCR in permeabilized MDBK cells. The format is cell-based, Bos taurus. The following applies: MDBK permeabilised cells; for matrix biguanide concentration, mean: external concentration IC50/5; for fold accumulation: matrix vs external (IC50/5) biguanide concentration. The protocol: For permeabilized cell experiments, cells were seeded into XF96 plates at 0.9–1.1 × 10^4 per well and incubated for 48 h at 37 °C in 5 % CO2. Then, the growth medium was exchanged for assay buffer containing 3 nM plasma membrane permeabilizer ‘PMP’ (Seahorse Biosciences Inc.), 10 mM glutamate, 10 mM malate, 220 mM mannitol, 70 mM sucrose, 10 mM KH2PO4, 5 mM MgCl2, 1 mM EGTA, 0.2 % fatty acid-free bovine serum albumin (BSA), and 2 mM HEPES (pH 7.4 at 37 °C). […] The biguanides were allowed to accumulate for 30 min, then respiration was […] by the addition of 4 mM ADP. Rotenone was added (2 μM) at the end of the experiment.
as §1

For `NC(N)=NC(N)=NCCc1ccc(Cl)cc1` [compound 1, 2-[2-(4-chlorophenyl)ethyl]-1-(diaminomethylidene)guanidine], in the data set on MDBK cells, the “matrix biguanide concentration, mean” value is listed as 0.002 mM and the fold accumulation came out at 0.053. In the data set on permeabilized MDBK cells, the “matrix biguanide concentration, mean” value amounted to 3.117 mM and the fold accumulation is given as 39.154.
In the same order, the values of `N=C(N)NC(N)=Nc1ccccc1` [compound 2, phenyl biguanide] are 0.001 mM, 0.024, 0.000 mM and 0.000.
As for `NC(N)=NC(N)=NCc1ccccc1` [compound 3, 2-benzyl-1-(diaminomethylidene)guanidine], in the data set on MDBK cells, the “matrix biguanide concentration, mean” value turned out to be 0.028 mM and the fold accumulation turned out to be 0.288. Moreover, in the data set with permeabilized MDBK cells, the “matrix biguanide concentration, mean” value is recorded as 44.099 mM and the fold accumulation came out at 227.401.
In the same order, the values of `CC(C)N=C(N)N=C(N)N` [compound 4, 1-(diaminomethylidene)-2-(propan-2-yl)guanidine] are 2.783 mM, 0.965, 192.961 mM and 33.453.
In the same order, the values of `CC(C)N=C(N)N=C(N)NC(C)C` [compound 5, N-(propan-2-yl)-1-3-(propan-2-yl)carbamimidamidomethanimidamide] are 0.002 mM, 0.064, 0.008 mM and 0.119.
On the same counts, the results for `[H]/N=C(\N/C(=N/[H])Nc1ccc(Cl)cc1)NC(C)C` [proguanil, reference compound] are 0.000557 mM, 0.342, 0.000 mM and 0.000.
